Experimental data as given in patent US20240034757A1.
Results are given in words; binding and its absence hold for the method and conditions named.

Sequences of proteins named here, by UniProt entry; tags and fusion partners are left off. Residues count along the entry.
UniProt P55773, residues 22-120: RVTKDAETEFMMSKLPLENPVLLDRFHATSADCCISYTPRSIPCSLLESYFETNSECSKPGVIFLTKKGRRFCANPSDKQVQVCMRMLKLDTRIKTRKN
UniProt P80162, residues 38-114: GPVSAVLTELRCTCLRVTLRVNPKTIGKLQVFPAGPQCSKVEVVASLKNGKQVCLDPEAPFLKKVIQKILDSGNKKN
UniProt P02775, residues 59-128: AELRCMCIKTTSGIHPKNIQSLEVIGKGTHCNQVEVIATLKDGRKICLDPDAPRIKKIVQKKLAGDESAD
UniProt Q9Y4X3, residues 25-112: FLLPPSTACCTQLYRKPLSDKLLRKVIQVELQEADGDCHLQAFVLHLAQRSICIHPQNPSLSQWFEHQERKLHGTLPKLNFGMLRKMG
UniProt Q99731, residues 22-98: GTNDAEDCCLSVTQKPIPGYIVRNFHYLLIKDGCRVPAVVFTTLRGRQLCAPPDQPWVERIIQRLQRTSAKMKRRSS
UniProt P55774, residues 21-89: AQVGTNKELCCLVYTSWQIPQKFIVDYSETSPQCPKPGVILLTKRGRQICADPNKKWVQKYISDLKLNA
UniProt Q16663, residues 22-113: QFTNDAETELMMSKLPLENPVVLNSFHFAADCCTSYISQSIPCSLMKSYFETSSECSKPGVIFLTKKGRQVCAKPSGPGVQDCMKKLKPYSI
UniProt P78423, residues 25-100: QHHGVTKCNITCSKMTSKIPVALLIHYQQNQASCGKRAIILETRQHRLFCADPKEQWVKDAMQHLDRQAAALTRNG
UniProt Q9NRJ3, residues 23-127: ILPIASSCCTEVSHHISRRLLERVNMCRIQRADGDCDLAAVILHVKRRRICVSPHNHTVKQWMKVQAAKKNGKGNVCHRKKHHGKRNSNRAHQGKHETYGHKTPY
UniProt Q92583, residues 24-94: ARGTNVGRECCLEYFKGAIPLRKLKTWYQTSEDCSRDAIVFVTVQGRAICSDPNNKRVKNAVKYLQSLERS
UniProt P09341, residues 35-107: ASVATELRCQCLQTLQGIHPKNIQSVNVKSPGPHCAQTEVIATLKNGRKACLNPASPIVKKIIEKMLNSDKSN
UniProt P10147, residues 24-92: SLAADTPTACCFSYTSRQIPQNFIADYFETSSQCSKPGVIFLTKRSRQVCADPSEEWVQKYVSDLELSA
UniProt P42830, residues 41-114: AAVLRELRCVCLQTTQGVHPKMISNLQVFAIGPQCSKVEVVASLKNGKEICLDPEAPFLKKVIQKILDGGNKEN
UniProt O95715, residues 35-111: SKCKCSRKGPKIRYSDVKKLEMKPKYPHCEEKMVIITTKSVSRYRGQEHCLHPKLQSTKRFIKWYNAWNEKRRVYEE
UniProt P02778, residues 22-98: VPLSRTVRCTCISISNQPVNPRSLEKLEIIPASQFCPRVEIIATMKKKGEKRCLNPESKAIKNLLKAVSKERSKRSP
UniProt P48061, residues 22-89: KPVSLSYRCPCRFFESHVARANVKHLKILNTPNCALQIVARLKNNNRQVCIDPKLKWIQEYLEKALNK
UniProt P19876, residues 35-107: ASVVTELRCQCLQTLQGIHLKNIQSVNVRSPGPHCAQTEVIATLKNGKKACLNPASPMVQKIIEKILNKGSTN
UniProt Q16627, residues 22-93: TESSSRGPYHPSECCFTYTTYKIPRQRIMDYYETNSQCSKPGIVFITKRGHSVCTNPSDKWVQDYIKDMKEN
UniProt P13501, residues 24-91: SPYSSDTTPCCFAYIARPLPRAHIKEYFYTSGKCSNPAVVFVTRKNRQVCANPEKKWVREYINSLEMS
UniProt O00175, residues 27-104: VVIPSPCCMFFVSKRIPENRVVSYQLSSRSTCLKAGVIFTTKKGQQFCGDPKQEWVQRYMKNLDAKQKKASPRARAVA
UniProt P02776, residues 32-101: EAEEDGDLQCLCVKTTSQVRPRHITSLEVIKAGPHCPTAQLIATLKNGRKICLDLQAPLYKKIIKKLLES
UniProt O14625, residues 22-94: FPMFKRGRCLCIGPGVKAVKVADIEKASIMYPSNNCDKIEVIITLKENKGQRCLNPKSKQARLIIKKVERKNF
UniProt P10145, residues 28-99: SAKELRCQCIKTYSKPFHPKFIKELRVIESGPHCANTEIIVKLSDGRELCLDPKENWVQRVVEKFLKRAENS
UniProt P19875, residues 35-107: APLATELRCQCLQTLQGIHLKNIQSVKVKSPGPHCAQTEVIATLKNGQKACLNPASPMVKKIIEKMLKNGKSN
UniProt P78556, residues 27-96: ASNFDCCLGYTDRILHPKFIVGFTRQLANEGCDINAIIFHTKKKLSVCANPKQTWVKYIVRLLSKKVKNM
UniProt O00585, residues 24-134: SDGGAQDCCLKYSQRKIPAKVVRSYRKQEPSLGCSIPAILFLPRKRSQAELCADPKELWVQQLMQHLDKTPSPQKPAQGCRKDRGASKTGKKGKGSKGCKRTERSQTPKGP
UniProt Q07325, residues 23-125: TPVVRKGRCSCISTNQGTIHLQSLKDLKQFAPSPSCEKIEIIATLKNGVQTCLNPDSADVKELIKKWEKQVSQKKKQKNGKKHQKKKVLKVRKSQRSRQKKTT
UniProt O15467, residues 24-120: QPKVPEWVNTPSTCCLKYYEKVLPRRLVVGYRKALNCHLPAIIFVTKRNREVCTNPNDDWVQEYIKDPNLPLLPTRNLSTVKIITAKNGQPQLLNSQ
UniProt O43927, residues 23-109: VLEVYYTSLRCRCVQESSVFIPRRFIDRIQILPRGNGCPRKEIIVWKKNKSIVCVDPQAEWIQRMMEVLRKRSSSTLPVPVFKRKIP
UniProt P22362, residues 24-96: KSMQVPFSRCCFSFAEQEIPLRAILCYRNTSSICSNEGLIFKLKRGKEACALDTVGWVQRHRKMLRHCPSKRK

Columns and labels:
CCL23_HUMAN (human) = CCL23_HUMAN (human) (UniProt P55773); assay: BLI, empty cell the 12th table, row 89, column 5
CXCL6_HUMAN (human) = CXCL6_HUMAN (human) (UniProt P80162); assay: BLI, empty cell the 12th table, row 101, column 5
CXCL7_HUMAN (human) = CXCL7_HUMAN (human) (UniProt P02775); assay: BLI, empty cell the 12th table, row 102, column 5
CCL27_HUMAN (human) = CCL27_HUMAN (human) (UniProt Q9Y4X3); assay: BLI, empty cell the 12th table, row 93, column 5
CCL19_HUMAN (human) = CCL19_HUMAN (human) (UniProt Q99731); assay: BLI, empty cell the 12th table, row 85, column 5
CCL18_HUMAN (human) = CCL18_HUMAN (human) (UniProt P55774); assay: BLI, empty cell the 12th table, row 84, column 5
CCL15_HUMAN (human) = CCL15_HUMAN (human) (UniProt Q16663); assay: BLI, empty cell the 12th table, row 81, column 5
CX3CL1_HUMAN (human) = CX3CL1_HUMAN (human) (UniProt P78423); assay: BLI, empty cell the 12th table, row 95, column 5
CCL28_HUMAN (human) = CCL28_HUMAN (human) (UniProt Q9NRJ3); assay: BLI, empty cell the 12th table, row 94, column 5
CCL17_HUMAN (human) = CCL17_HUMAN (human) (UniProt Q92583); assay: BLI, empty cell the 12th table, row 83, column 5
CXCL1_HUMAN (human) = CXCL1_HUMAN (human) (UniProt P09341); assay: BLI, empty cell the 12th table, row 96, column 5
CCL3_HUMAN (human) = CCL3_HUMAN (human) (UniProt P10147); assay: BLI, empty cell the 12th table, row 71, column 5
CXCL5_HUMAN (human) = CXCL5_HUMAN (human) (UniProt P42830); assay: BLI, empty cell the 12th table, row 100, column 5
CXCL14_HUMAN (human) = CXCL14_HUMAN (human) (UniProt O95715); assay: BLI, empty cell the 12th table, row 109, column 5
CXCL10_HUMAN (human) = CXCL10_HUMAN (human) (UniProt P02778); assay: BLI, empty cell the 12th table, row 105, column 5
CXCL12_HUMAN (human) = CXCL12_HUMAN (human) (UniProt P48061); assay: BLI, empty cell the 12th table, row 107, column 5
CXCL3_HUMAN (human) = CXCL3_HUMAN (human) (UniProt P19876); assay: BLI, empty cell the 12th table, row 98, column 5
CCL14_HUMAN (human) = CCL14_HUMAN (human) (UniProt Q16627); assay: BLI, empty cell the 12th table, row 80, column 5
CCL5_HUMAN (human) = CCL5_HUMAN (human) (UniProt P13501); assay: BLI, empty cell the 12th table, row 75, column 5
CCL24_HUMAN (human) = CCL24_HUMAN (human) (UniProt O00175); assay: BLI, empty cell the 12th table, row 90, column 5
CXCL4_HUMAN (human) = CXCL4_HUMAN (human) (UniProt P02776); assay: BLI, empty cell the 12th table, row 99, column 5
CXCL11_HUMAN (human) = CXCL11_HUMAN (human) (UniProt O14625); assay: BLI, empty cell the 12th table, row 106, column 5
CXCL8_HUMAN (human) = CXCL8_HUMAN (human) (UniProt P10145); assay: BLI, empty cell the 12th table, row 103, column 5
XCL1_HUMAN (human) = biological target: T1, XCL1_HUMAN (human) (UniProt P47992); assay: BLI, empty cell the 12th table, row 113, column 5
T1 sequence: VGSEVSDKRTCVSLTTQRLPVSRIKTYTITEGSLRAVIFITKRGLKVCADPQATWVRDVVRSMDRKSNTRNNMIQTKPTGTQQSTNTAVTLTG

CXCL2_HUMAN (human) = CXCL2_HUMAN (human) (UniProt P19875); assay: BLI, empty cell the 12th table, row 97, column 5
CCL20_HUMAN (human) = CCL20_HUMAN (human) (UniProt P78556); assay: BLI, empty cell the 12th table, row 86, column 5
CCL21_HUMAN (human) = CCL21_HUMAN (human) (UniProt O00585); assay: BLI, empty cell the 12th table, row 87, column 5
CXCL9_HUMAN (human) = CXCL9_HUMAN (human) (UniProt Q07325); assay: BLI, empty cell the 12th table, row 104, column 5
CCL16_HUMAN (human) = CCL16_HUMAN (human) (UniProt O15467); assay: BLI, empty cell the 12th table, row 82, column 5
CXCL13_HUMAN (human) = CXCL13_HUMAN (human) (UniProt O43927); assay: BLI, empty cell the 12th table, row 108, column 5
CCL1_HUMAN (human) = CCL1_HUMAN (human) (UniProt P22362); assay: BLI, empty cell the 12th table, row 69, column 5

Measured: binding

B1: P1183_AMBTR (protein)
chain: EAPKDDFEYDGGCPFVVLDNGTHVKPAGCSHLCNGAPETLDNIECYNVTEEVAKRMTPGIPYACWLGWCSKGECKRDNRTEVCYRGSEEE
no binding (tested: 300 nM): CCL23_HUMAN (human) | CXCL6_HUMAN (human) | CXCL7_HUMAN (human) | CCL27_HUMAN (human) | CCL19_HUMAN (human) | CCL18_HUMAN (human) | CCL15_HUMAN (human) | CX3CL1_HUMAN (human) | CCL28_HUMAN (human) | CCL17_HUMAN (human) | CXCL1_HUMAN (human) | CCL3_HUMAN (human) | CXCL5_HUMAN (human) | CXCL14_HUMAN (human) | CXCL10_HUMAN (human) | CXCL12_HUMAN (human) | CXCL3_HUMAN (human) | CCL14_HUMAN (human) | CCL5_HUMAN (human) | CCL24_HUMAN (human) | CXCL4_HUMAN (human) | CXCL11_HUMAN (human) | CXCL8_HUMAN (human) | XCL1_HUMAN (human) | CXCL2_HUMAN (human) | CCL20_HUMAN (human) | CCL21_HUMAN (human) | CXCL9_HUMAN (human) | CCL16_HUMAN (human) | CXCL13_HUMAN (human) | CCL1_HUMAN (human)
